The source of these data is publication PMC6468040.

By UniProt entry, the sequences of proteins in these tests, tags left out.
UniProt Q13131: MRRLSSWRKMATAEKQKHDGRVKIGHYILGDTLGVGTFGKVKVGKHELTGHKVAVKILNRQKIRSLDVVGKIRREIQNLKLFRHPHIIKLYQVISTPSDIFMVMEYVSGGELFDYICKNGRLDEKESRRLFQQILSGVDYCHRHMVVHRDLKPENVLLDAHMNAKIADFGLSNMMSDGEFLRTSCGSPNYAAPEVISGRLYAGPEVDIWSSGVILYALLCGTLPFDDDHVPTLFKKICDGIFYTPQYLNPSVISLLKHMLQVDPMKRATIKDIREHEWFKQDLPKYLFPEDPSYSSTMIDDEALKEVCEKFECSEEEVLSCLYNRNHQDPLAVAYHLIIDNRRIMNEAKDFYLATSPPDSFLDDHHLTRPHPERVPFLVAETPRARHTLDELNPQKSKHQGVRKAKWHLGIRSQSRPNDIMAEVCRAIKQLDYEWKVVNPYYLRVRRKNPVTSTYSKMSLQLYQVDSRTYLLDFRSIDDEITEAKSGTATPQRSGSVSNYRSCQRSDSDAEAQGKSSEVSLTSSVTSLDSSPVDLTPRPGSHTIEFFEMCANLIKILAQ
UniProt P54619: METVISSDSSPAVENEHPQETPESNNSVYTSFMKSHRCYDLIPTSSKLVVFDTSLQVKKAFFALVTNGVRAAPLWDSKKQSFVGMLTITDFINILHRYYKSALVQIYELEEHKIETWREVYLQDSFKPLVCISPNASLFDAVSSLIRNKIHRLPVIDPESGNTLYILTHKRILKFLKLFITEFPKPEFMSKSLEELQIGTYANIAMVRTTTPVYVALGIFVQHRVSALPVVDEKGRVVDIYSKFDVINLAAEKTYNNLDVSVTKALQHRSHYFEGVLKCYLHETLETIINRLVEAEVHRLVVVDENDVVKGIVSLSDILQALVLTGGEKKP

Results are given in words; binding and its absence hold for the method and conditions named. In cells and extracts the contact can be indirect. Some results given as binding are weak or reduced against the parent protein; the word gives no strength. Tags and fused reporters may be left off the sequences shown.

For one test, the target named is T1, GST-tagged PLIN3 (UniProt O60664).
T1 sequence: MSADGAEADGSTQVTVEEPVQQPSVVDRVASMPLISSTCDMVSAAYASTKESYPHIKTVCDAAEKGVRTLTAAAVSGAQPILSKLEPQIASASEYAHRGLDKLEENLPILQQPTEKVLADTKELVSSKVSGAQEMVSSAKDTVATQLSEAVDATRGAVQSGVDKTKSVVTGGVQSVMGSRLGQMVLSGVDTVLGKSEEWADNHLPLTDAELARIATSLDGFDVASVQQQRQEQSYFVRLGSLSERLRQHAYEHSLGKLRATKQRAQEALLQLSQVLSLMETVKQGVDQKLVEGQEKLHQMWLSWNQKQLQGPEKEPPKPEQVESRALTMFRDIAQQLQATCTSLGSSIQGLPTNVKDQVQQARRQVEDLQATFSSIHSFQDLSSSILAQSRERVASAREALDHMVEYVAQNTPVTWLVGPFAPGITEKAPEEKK
Briefly: co-IP; 293T cells co-expressing GST-tagged PLIN3 with LKB1, AMPKα1, AMPKβ2 and AMPKγ1; immunoprecipitation with anti-GST antibodies, western blot with Flag antibodies. For orientation: Immunoblotting shows a protein as a band on a membrane.

The target of the next test is YFPn-tagged AMPKα1 (UniProt Q13131). In words: split reporter; BiFC with halves of Venus YFP: YFPn-AMPKα1 and YFPc-perilipins stably expressed in HTC75 cells; fluorescence detected by flow cytometer; YFPn-AMPKα1 alone as negative control. (In general: Flow cytometry measures light scatter and fluorescence of single cells or particles in a stream.)

For “AMPKγ1 (detected with Flag antibodies) (from UniProt P54619 1-331)”, the binding entry with GST-tagged PLIN3 was “binds”.

B1: YFPc-tagged PLIN5 (protein, UniProt Q00G26 1-463)
chain: MSEEEAAQIPRSSVWEQDQQNVVQRVVALPLVRATCTAVCDVYSAAKDRHPLLGSACRLAENCVCGLTTRALDHAQPLLEHLQPQLATMNSLACRGLDKLEEKLPFLQQPSETVVTSAKDVVASSVTGVVDLARRGRRWSVELKRSVSHAVDVVLEKSEELVDHFLPMTEEELAALAAEAEGPEVGSVEDQRRQQGYFVRLGSLSARIRHLAYEHSVGKLRQSKHRAQDTLAQLQETLELIDHMQCGVTPTAPACPGKVHELWGEWGQRPPESRRRSQAELETLVLSRSLTQELQGTVEALESSVRGLPAGAQEKVAEVRRSVDALQTAFADARCFRDVPAAALAEGRGRVAHAHACVDELLELVVQAVPLPWLVGPFAPILVERPEPLPDLADLVDEVIGGPDPRWAHLDWPAQQRAWEAEHRDGSGNGDGDRMGVAGDICEQEPETPSCPVKHTLMPELDF
B1: in the test with YFPn-tagged AMPKα1, the binding result was “no binding”.

B2: YFPc-tagged PLIN3 (protein, UniProt O60664 1-434)
chain: MSADGAEADGSTQVTVEEPVQQPSVVDRVASMPLISSTCDMVSAAYASTKESYPHIKTVCDAAEKGVRTLTAAAVSGAQPILSKLEPQIASASEYAHRGLDKLEENLPILQQPTEKVLADTKELVSSKVSGAQEMVSSAKDTVATQLSEAVDATRGAVQSGVDKTKSVVTGGVQSVMGSRLGQMVLSGVDTVLGKSEEWADNHLPLTDAELARIATSLDGFDVASVQQQRQEQSYFVRLGSLSERLRQHAYEHSLGKLRATKQRAQEALLQLSQVLSLMETVKQGVDQKLVEGQEKLHQMWLSWNQKQLQGPEKEPPKPEQVESRALTMFRDIAQQLQATCTSLGSSIQGLPTNVKDQVQQARRQVEDLQATFSSIHSFQDLSSSILAQSRERVASAREALDHMVEYVAQNTPVTWLVGPFAPGITEKAPEEKK
In the case of B2, the binding result in the test with YFPn-tagged AMPKα1 is “binds”.

B3: YFPc-tagged PLIN4 (protein, UniProt Q96Q06 1-1371)
chain: MSAPDEGRRDPPKPKGKTLGSFFGSLPGFSSARNLVANAHSSARARPAADPTGAPAAEAAQPQAQVAAHPEQTAPWTEKELQPSEKMVSGAKDLVCSKMSRAKDAVSSGVASVVDVAKGVVQGGLDTTRSALTGTKEVVSSGVTGAMDMAKGAVQGGLDTSKAVLTGTKDTVSTGLTGAVNVAKGTVQAGVDTTKTVLTGTKDTVTTGVMGAVNLAKGTVQTGVETSKAVLTGTKDAVSTGLTGAVNVARGSIQTGVDTSKTVLTGTKDTVCSGVTGAMNVAKGTIQTGVDTSKTVLTGTKDTVCSGVTGAMNVAKGTIQTGVDTSKTVLTGTKDTVCSGVTGAMNVAKGTIQTGVDTTKTVLTGTKNTVCSGVTGAVNLAKEAIQGGLDTTKSMVMGTKDTMSTGLTGAANVAKGAMQTGLNTTQNIATGTKDTVCSGVTGAMNLARGTIQTGVDTTKIVLTGTKDTVCSGVTGAANVAKGAVQGGLDTTKSVLTGTKDAVSTGLTGAVNVAKGTVQTGVDTTKTVLTGTKDTVCSGVTSAVNVAKGAVQGGLDTTKSVVIGTKDTMSTGLTGAANVAKGAVQTGVDTAKTVLTGTKDTVTTGLVGAVNVAKGTVQTGMDTTKTVLTGTKDTIYSGVTSAVNVAKGAVQTGLKTTQNIATGTKNTFGSGVTSAVNVAKGAAQTGVDTAKTVLTGTKDTVTTGLMGAVNVAKGTVQTSVDTTKTVLTGTKDTVCSGVTGAANVAKGAIQGGLDTTKSVLTGTKDAVSTGLTGAVKLAKGTVQTGMDTTKTVLTGTKDAVCSGVTGAANVAKGAVQMGVDTAKTVLTGTKDTVCSGVTGAANVAKGAVQTGLKTTQNIATGTKNTLGSGVTGAAKVAKGAVQGGLDTTKSVLTGTKDAVSTGLTGAVNLAKGTVQTGVDTSKTVLTGTKDTVCSGVTGAVNVAKGTVQTGVDTAKTVLSGAKDAVTTGVTGAVNVAKGTVQTGVDASKAVLMGTKDTVFSGVTGAMSMAKGAVQGGLDTTKTVLTGTKDAVSAGLMGSGNVATGATHTGLSTFQNWLPSTPATSWGGLTSSRTTDNGGEQTALSPQEAPFSGISTPPDVLSVGPEPAWEAAATTKGLATDVATFTQGAAPGREDTGLLATTHGPEEAPRLAMLQNELEGLGDIFHPMNAEEQAQLAASQPGPKVLSAEQGSYFVRLGDLGPSFRQRAFEHAVSHLQHGQFQARDTLAQLQDCFRLIEKAQQAPEGQPRLDQGSGASAEDAAVQEERDAGVLSRVCGLLRQLHTAYSGLVSSLQGLPAELQQPVGRARHSLCELYGIVASAGSVEELPAERLVQSREGVHQAWQGLEQLLEGLQHNPPLSWLVGPFALPAGGQ
With B3, the binding result with YFPn-tagged AMPKα1 was “no binding”.
